Test results reported in patent publication US20240052325.
For part of these data: No signal at the amounts used counts as a negative.

Protein sequences, listed by entry. Tags and fused reporters are not part of them. Residues count along the entry.
UniProt P19821, 4-832 K505G/E507G: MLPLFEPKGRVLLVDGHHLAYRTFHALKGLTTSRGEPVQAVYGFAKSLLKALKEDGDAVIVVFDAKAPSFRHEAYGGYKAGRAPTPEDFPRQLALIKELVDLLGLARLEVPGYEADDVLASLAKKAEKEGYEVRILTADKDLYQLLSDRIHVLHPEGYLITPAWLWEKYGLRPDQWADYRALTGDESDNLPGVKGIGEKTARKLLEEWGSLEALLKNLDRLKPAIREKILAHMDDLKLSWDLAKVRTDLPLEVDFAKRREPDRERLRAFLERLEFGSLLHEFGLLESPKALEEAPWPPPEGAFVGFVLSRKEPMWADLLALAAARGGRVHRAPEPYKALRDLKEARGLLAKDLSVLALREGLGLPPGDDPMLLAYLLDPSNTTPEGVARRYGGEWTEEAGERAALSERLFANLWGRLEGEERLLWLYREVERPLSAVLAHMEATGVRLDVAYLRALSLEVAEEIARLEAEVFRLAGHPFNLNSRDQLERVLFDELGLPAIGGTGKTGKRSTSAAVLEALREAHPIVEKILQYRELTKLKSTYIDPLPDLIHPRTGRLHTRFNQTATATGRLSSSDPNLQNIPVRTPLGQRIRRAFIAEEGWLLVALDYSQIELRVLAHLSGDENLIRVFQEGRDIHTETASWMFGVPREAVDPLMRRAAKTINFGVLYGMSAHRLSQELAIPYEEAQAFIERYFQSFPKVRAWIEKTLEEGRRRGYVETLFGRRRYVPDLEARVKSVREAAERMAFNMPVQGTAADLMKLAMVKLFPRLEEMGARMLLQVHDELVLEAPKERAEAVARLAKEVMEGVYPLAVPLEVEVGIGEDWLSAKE
UniProt P19821, whole entry: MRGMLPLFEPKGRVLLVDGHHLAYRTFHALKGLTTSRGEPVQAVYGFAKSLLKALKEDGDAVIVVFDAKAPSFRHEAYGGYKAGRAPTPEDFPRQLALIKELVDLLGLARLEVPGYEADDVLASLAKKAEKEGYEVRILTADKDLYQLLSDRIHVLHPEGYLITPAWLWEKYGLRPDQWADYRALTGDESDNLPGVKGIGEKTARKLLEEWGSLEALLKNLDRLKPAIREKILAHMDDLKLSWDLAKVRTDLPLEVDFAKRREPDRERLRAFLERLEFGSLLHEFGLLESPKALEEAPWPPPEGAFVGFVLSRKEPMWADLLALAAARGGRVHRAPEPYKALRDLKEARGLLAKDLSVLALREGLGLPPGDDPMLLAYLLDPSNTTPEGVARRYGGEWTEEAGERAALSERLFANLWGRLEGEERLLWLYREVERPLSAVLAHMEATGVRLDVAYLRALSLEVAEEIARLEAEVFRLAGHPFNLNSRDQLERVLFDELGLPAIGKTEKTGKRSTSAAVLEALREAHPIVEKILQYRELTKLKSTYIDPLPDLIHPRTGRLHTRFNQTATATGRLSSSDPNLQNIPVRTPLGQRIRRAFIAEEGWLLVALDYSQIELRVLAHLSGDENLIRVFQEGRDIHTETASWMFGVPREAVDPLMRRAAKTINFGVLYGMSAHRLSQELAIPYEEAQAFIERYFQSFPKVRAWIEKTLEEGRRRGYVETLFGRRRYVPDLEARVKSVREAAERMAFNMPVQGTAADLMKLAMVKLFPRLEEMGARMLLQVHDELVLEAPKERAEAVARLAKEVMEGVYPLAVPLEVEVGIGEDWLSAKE

Columns and labels:
[1] = target: Activated InTaq (Taq after intein splicing, 80 C 5 min pre-activation + partially spliced mixture) (Thermus aquaticus) (UniProt P19821); experiment: activity assay; settings: primer extension; pre-activated 80 C 5 min; 30 C 1 h or 21 C 24 h; 1.5 mM MgCl2; purified recombinant protein; folded or branched DNA
[2] = target: Taq DNA polymerase wild type (Thermus aquaticus) (UniProt P19821); experiment: activity assay; settings: primer extension; 30 C 1 h or 21 C 24 h; 1.5 mM MgCl2; purified recombinant protein; folded or branched DNA
[3] = target: Pfu DNA polymerase wild type (Pyrococcus furiosus) (UniProt P61875); experiment: activity assay; settings: primer extension; 30 C 1 h or 21 C 24 h; Pfu buffer, 1.5 mM MgCl2; purified recombinant protein; folded or branched DNA
[4] = target: Activated InPfu (Pfu after intein splicing at 80 C + partially spliced mixture) (Pyrococcus furiosus) (UniProt P61875); experiment: activity assay; settings: primer extension; pre-activated 80 C 5 min; Pfu buffer, 1.5 mM MgCl2; purified recombinant protein; folded or branched DNA
[5] = test system: InTaq (Taq DNA polymerase with inserted PI-PfuI mini intein, unspliced) (Thermus aquaticus / Pyrococcus furiosus); experiment: activity assay; settings: primer extension; 30 C 1 h or 21 C 24 h; 1.5 mM MgCl2, 50 mM KCl, Tris pH 8.3; purified recombinant protein; protein details: internal His6 in intein; folded or branched DNA
[6] = test system: InPfu (Pfu DNA polymerase with inserted PI-PfuI mini intein, unspliced) (Pyrococcus furiosus); experiment: activity assay; settings: primer extension; 30 C 1 h or 21 C 24 h; Pfu buffer pH 8.8, 1.5 mM MgCl2; purified recombinant protein; protein details: internal His6 in intein; folded or branched DNA
[7] = target: Pfu DNA polymerase wild type (Pyrococcus furiosus) (UniProt P61875); experiment: enzyme reaction in vitro; settings: 3'-5' exonuclease; 50 C 1 h; 1.5 mM MgCl2; purified recombinant protein; folded or branched DNA
[8] = target: Activated InPfu (Pfu after intein splicing at 80 C + partially spliced mixture) (Pyrococcus furiosus) (UniProt P61875); experiment: enzyme reaction in vitro; settings: 3'-5' exonuclease; pre-activated 80 C 1 h; 50 C 1 h; 1.5 mM MgCl2; purified recombinant protein; folded or branched DNA
[9] = test system: InPfu (Pfu DNA polymerase with inserted PI-PfuI mini intein, unspliced) (Pyrococcus furiosus); experiment: enzyme reaction in vitro; settings: 3'-5' exonuclease; 50 C 1 h; Pfu buffer, 1.5 mM MgCl2; purified recombinant protein; protein details: internal His6 in intein; folded or branched DNA

Row | Sequence | activity on this sequence [1] | activity on this sequence [2] | activity on this sequence [3] | activity on this sequence [4] | activity on this sequence [5] | activity on this sequence [6] | activity on this sequence [7] | activity on this sequence [8] | activity on this sequence [9]
1 | CGAACGATGTGAACCTAATAACGTCTCTCGCGGCCGATCTGCCGGCCGCGAGAGACGT [elongation hairpin substrate] | active | active | active | active | not active | not active |  |  | 
2 | TGTTCTCCTCTTCCGCTGCTCCCGCGATCTGCCGCGGGAGCAGCGGAAGAGGAGAACA [exonuclease hairpin substrate] |  |  |  |  |  |  | active | active | not active
